Results: PubChem BioAssay AID1347076 (National Center for Advancing Translational Sciences (NCATS), 2019)
Screen size: about 400,000 compounds; about 13,000 (3.2%) were called active. The shares of active, inactive and inconclusive entries below differ from those in the screen. Calls follow the shape of the dose curve; as a rule, active = well fitted cell-killing curve with a large enough effect; inconclusive = small, poorly fitted or top-dose-only effect, or effect the other way; inactive = flat fitted curve, though single readings scatter. Potencies of inconclusive entries are doubtful fits and often do not repeat.

Assay: qHTS assay for MDR1-selective chemotherapeutics: Primary screen using the drug-selected MDR subline cells KB-V1; also: nearly all actives have a fitted effect of over 60% in size
Details: KB-V1 MDR cells viability, CellTiter-Glo, 72 h; activity change, negative = cytotoxicity: at 46.1 µM (top of the series)
Method in brief: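 KB-V1 MDR subline cells in DMEM (phenol-red free, 10% FBS) exposed to compounds in qHTS concentration series for 72 h at 37 degrees C. Viability read by CellTiter-Glo luminescence; concentration-effect curves fitted after normalization and correction.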
% is scaled to controls: 0 for no effect and ±100 for the full control effect; potency is read from the fitted curve at half-maximal effect.

SMILES	Potency	activity change, negative = cytotoxicity
Cc1ccccc1/C=N/N1CCN(c2ccccc2)CC1	inconclusive: 20.6 µM [cytotoxic, single point]	–
CCCc1cc2c(cc1NC(=O)c1ccc(C(C)(C)C)cc1)OCO2	inconclusive: 11.6 µM [cytotoxic, partial curve, poor fit]	–
COC(=O)C1C(c2ccc(OC)cc2)C(C(=O)OC)S(=O)(=O)C(CCN2CCCCC2)S1(=O)=O (configuration not stated)	inconclusive: 20.6 µM [cytotoxic, single point]	–
Cc1ccc(CNC(=O)c2ccc(N3CCC4(CC3)CC(c3ccccc3)=NO4)c(NC(=O)c3ccccc3)c2)cc1	inactive	–
Cc1ccc(S(=O)(=O)NCC(Nc2cccc(Cl)c2)c2ccccc2)cc1 (configuration not stated)	inconclusive: 29.1 µM [cytotoxic, single point]	–
C=CCC[C@H](Cc1ccc(F)cc1)C(=O)OC[C@@H](Cc1c[nH]c2ccccc12)NC(=O)[C@H](CC=C)CC(=O)N(CCO)Cc1ccccc1	inconclusive: 18.4 µM [cytotoxic, single point]	–
Cc1nc(SCc2ccc(O)c([N+](=O)[O-])c2)c([N+](=O)[O-])[nH]1	inconclusive: 29.1 µM [rising, single point]	–
N=c1c(C(=O)NC2CCCC2)cc2c(=O)n3ccccc3nc2n1C1CCCCC1	inconclusive: 5.17 µM [cytotoxic, full curve]	–
COc1ccc(CN2C(=O)CN(S(C)(=O)=O)CC2(C)C(=O)Nc2c(C)cccc2C)cc1 (configuration not stated)	inactive	–
CC(C)CC1CCCCC1OC(=O)C[N+]1(C)CCCCC1 (configuration not stated)	inactive	–
O=C(NCC1CCCO1)c1ccccc1NS(=O)(=O)c1cc([N+](=O)[O-])ccc1Cl (configuration not stated)	active: 16.4 µM	–
NS(=O)(=O)c1ccc(NCc2ccccc2OCc2ccccc2F)cc1	inconclusive: 18.4 µM [cytotoxic, partial curve]	–
CC1CCCC/C1=N\NC(=S)Nc1ccccc1 (configuration not stated)	inconclusive: 29.1 µM [rising, single point]	–
CCc1ccc(NC(=O)N2CCC(N3CCN(Cc4ccc(C)cc4)C(=O)C3=O)CC2)cc1	inconclusive: 29.1 µM [cytotoxic, single point]	–
COc1ccc(C(CCN2CCN(c3ccccc3)CC2)c2c(O)cc(OC)cc2OC)cc1 (configuration not stated)	inconclusive: 18.4 µM [cytotoxic, single point]	–
O=C(Nc1ccccc1)c1nc[nH]c1C(=O)NCCCCNC(=O)c1[nH]cnc1C(=O)Nc1ccccc1	inconclusive: 29.1 µM [cytotoxic, single point]	–
CN1CCN(C(=O)C2CCCN(c3ncnc4c3nc3n4CCCCC3)C2)CC1 (configuration not stated)	–	inconclusive: 4.78%

Individual results from above.
Under Potency, CCCc1cc2c(cc1NC(=O)c1ccc(C(C)(C)C)cc1)OCO2 is listed with inconclusive: 11.6 µM [cytotoxic, partial curve, poor fit]
Under Potency, CC1CCCC/C1=N\NC(=S)Nc1ccccc1 (configuration not stated) is listed with inconclusive: 29.1 µM [rising, single point]
